PMC3264557

Tests used:
Test in all cases: ELISA; plates coated overnight at 4°C with 10 µg/mL PilA, PilB, PilC or HvgA-S10; blocked with 2% BSA in PBS; rGAPDH added at 0, 6.25, 12.5, 25, 50 or 100 µg/mL for 2 h at room temperature; detected with rabbit anti-rGAPDH IgG and HRP anti-rabbit, OD450; both purified
[1] = biological target: PilC-6×His (pilus accessory protein PilC, Gbs1474) (Group B Streptococcus (Streptococcus agalactiae) strain NEM316)
[2] = biological target: His-HvgA S10 (S10 domain of HvgA protein)
[3] = biological target: PilB-6×His (major pilin PilB, Gbs1477) (Group B Streptococcus (Streptococcus agalactiae) strain NEM316)
[4] = biological target: PilA-6×His (pilus associated adhesin PilA, Gbs1478) (Group B Streptococcus (Streptococcus agalactiae) strain NEM316)

Measured: binding

B1: recombinant histidyl-tagged GAPDH (glyceraldehyde 3-phosphate dehydrogenase) of Group B Streptococcus (enzyme, UniProt Q8E3E8 1-336)
chain: MVVKVGINGFGRIGRLAFRRIQNVEGVEVTRINDLTDPNMLAHLLKYDTTQGRFDGTVEVKEGGFEVNGQFVKVSAEREPANIDWATDGVEIVLEATGFFASKEKAEQHIHENGAKKVVITAPGGNDVKTVVFNTNHDILDGTETVISGASCTTNCLAPMAKALQDNFGVKQGLMTTIHAYTGDQMILDGPHRGGDLRRARAGAANIVPNSTGAAKAIGLVIPELNGKLDGAAQRVPVPTGSVTELVATLEKDVTVEEVNAAMKAAANDSYGYTEDPIVSSDIVGISYGSLFDATQTKVQTVDGNQLVKVVSWYDNEMSYTSQLVRTLEYFAKIAK
binds: all assays above

No constants are given. Whether binding was seen depends on the method and setting. Binding can be weak; no strength is given. Where a sequence is shown, tags or fusion partners need not be part of it.
